Reference: PubChem BioAssay AID1259254 (NCATS, 2017)

Assay: 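Genome-wide screen for genes that prevent DNA re-replication in cancer cells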 (primary screen)
Cells: human HCT116 colorectal cancer cells
Reagent: single siRNA against human genes
Time to read-out: 3 days
Read-out: 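Imaged Hoechst DNA stain sorts each cell into a cycle phase by DNA amount; per plate, G2 fraction set to 0% for non-targeting and 100% for GMNN siRNA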
Scale: G2 robust z-score and G2 cells, % of GMNN control: higher = more G2 cells, more excess DNA replication
Hit rule: 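Active siRNAs have a G2 robust z of 5 or more median absolute deviations over the median, which in these data means about 38% or higher of GMNN control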
Here is one part, drawn at random, of about 59,000 reagents tested. About 1,550 of all reagents (2.6%) count as active. 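G2 share is only a proxy for re-replication; each gene was hit by three separate siRNAs, and active genes were retested.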 Reagents against one gene are numbered here. Not all columns of the deposit are shown. The record does not give: the amount of reagent.

For LYNX1 #1, how do the results read?
G2 robust z-score: 2.25; G2 cells, % of GMNN control: 18.8; Outcome: inactive

With LYNX1 #2, how do the results read?
G2 robust z-score: 0.557; G2 cells, % of GMNN control: 6.89; Outcome: inactive

With LYNX1 #3, how do the results read?
G2 robust z-score: 0.121; G2 cells, % of GMNN control: 3.82; Outcome: inactive

With DCHS2 #1, what was measured?
G2 robust z-score: 0.356; G2 cells, % of GMNN control: 5.47; Outcome: inactive

For DCHS2 #2, what does the deposit list?
G2 robust z-score: 0.547; G2 cells, % of GMNN control: 6.82; Outcome: inactive

With DCHS2 #3, what was measured?
G2 robust z-score: -0.457; G2 cells, % of GMNN control: -0.247; Outcome: inactive

What is on record for KSR1 #1?
G2 robust z-score: -1.25; G2 cells, % of GMNN control: -5.85; Outcome: inactive

For KSR1 #2, what does the deposit list?
G2 robust z-score: -0.0984; G2 cells, % of GMNN control: 2.28; Outcome: inactive

How did the screen score KSR1 #3?
G2 robust z-score: 2.86; G2 cells, % of GMNN control: 23.1; Outcome: inactive

How did the screen score NDUFB6 #1?
G2 robust z-score: 5.03; G2 cells, % of GMNN control: 38.4; Outcome: active

What is on record for NDUFB6 #2?
G2 robust z-score: -1.09; G2 cells, % of GMNN control: -4.7; Outcome: inactive

Which result is listed for NDUFB6 #3?
G2 robust z-score: 2.65; G2 cells, % of GMNN control: 21.6; Outcome: inactive

For ADAM8 #1, what was measured?
G2 robust z-score: -1.36; G2 cells, % of GMNN control: -6.58; Outcome: inactive

For ADAM8 #2, what does the deposit list?
G2 robust z-score: -1.42; G2 cells, % of GMNN control: -7.02; Outcome: inactive

How did the screen score ADAM8 #3?
G2 robust z-score: 0.608; G2 cells, % of GMNN control: 7.24; Outcome: inactive

Entries listed above marked active, once more:
NDUFB6 #1 | G2 robust z-score: 5.03; G2 cells, % of GMNN control: 38.4; Outcome: active

The list goes on:
For TMEM53 #1, how do the results read?
G2 robust z-score: -0.589; G2 cells, % of GMNN control: -1.17; Outcome: inactive

Which result is listed for TMEM53 #2?
G2 robust z-score: 2.23; G2 cells, % of GMNN control: 18.7; Outcome: inactive

With TMEM53 #3, what does the deposit list?
G2 robust z-score: -1.01; G2 cells, % of GMNN control: -4.11; Outcome: inactive

What is on record for SCARF1 #1?
G2 robust z-score: -0.123; G2 cells, % of GMNN control: 2.1; Outcome: inactive

What did the screen give for SCARF1 #2?
G2 robust z-score: 4.85; G2 cells, % of GMNN control: 37.1; Outcome: inactive

For SCARF1 #3, what was measured?
G2 robust z-score: 2.02; G2 cells, % of GMNN control: 17.2; Outcome: inactive

What did the screen give for ASTN1 #1?
G2 robust z-score: -0.518; G2 cells, % of GMNN control: -0.679; Outcome: inactive

What is on record for ASTN1 #2?
G2 robust z-score: -0.449; G2 cells, % of GMNN control: -0.195; Outcome: inactive

How did the screen score ASTN1 #3?
G2 robust z-score: -0.295; G2 cells, % of GMNN control: 0.894; Outcome: inactive

For ALPK2 #1, how do the results read?
G2 robust z-score: 1.65; G2 cells, % of GMNN control: 14.6; Outcome: inactive

With ALPK2 #2, what does the deposit list?
G2 robust z-score: 1.77; G2 cells, % of GMNN control: 15.4; Outcome: inactive

With ALPK2 #3, what was measured?
G2 robust z-score: -1.15; G2 cells, % of GMNN control: -5.14; Outcome: inactive

How did the screen score CPLX1 #1?
G2 robust z-score: 3.55; G2 cells, % of GMNN control: 27.9; Outcome: inactive

What is on record for CPLX1 #2?
G2 robust z-score: -0.0151; G2 cells, % of GMNN control: 2.86; Outcome: inactive

For CPLX1 #3, what was measured?
G2 robust z-score: -0.019; G2 cells, % of GMNN control: 2.83; Outcome: inactive
